According to patent US10646496B2, “Joint application of statin and adrenocortical hormone for treating chronic subdural hematoma” (priority 2016, dated 2020):
Several values for one entry are separate records, joined by “and”; a condition that tells them apart may be missing. Identical values can stand only once.

Legend:
subdural hematoma = settings: small-dose atorvastatin
subcutaneous hematoma = settings: large-dose group compared with small-dose atorvastatin group
[1] = system: VEGF, TGF-β, MMP-9 and Ang-1/2; assay: Rat subdural hematoma model: factor expression in hematoma capsule/cavity (real-time PCR, ELISA); type: in vivo; settings: small-dose group 3 mg/kg/day, 7 days after the operation, vs control and large-dose group
Description: In FIG. 1 to FIG. 9, “#” denotes a statistically significant difference in the small-dose group and the large-dose group as compared with the control group; and “*” denotes a statistically significant difference between the small-dose group and the large-dose group.

[2] = system: chronic subdural hematoma; settings: atorvastatin alone

## CC(C)c1c(C(=O)Nc2ccccc2)c(-c2ccccc2)c(-c2ccc(F)cc2)n1CC[C@@H](O)C[C@@H](O)CC(=O)O [atorvastatin]
Subdural hematoma
  absorption of hematoma: accelerated
Subcutaneous hematoma
  hematoma absorption speed: not significantly improved
[1]
  ratio Ang-1/Ang-2: significantly higher
[2]; among the 52 patients
  patients with a poor hematoma absorption effect: 7 patients
[2]; one month after administration
  average hematoma absorption rate: 49.43% and 49%
